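Uptake of anthrax lethal toxin into cultured cells, read by FRET (460/530 nm ratio) and reported from the 460 nm channel; the cell line is not named here. Each compound was tested as a concentration series from about 0.0005 to 40 µM. The number is the fitted AC50 of the 460 nm signal alone; lower values mean a more potent effect. A falling signal goes with compounds filed as inhibitors or cytotoxic, a rising one with activators or fluorescent compounds (inferred from the filed classes).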

Values are in µM. Common to all entries: measured here: 460 nm channel. Part of the compounds only, not a random draw; the main read-out is not listed here. Potencies fitted to partial, single-point or poorly fitting curves are rough. The first word of each remark tells which way the curve ran; it can be opposite to the aim of the assay.

| # | Compound | AC50 (µM) | remark |
|---|---|---|---|
| 1 | `CCOc1ccc(NC(=O)CSc2nc3ccccc3c(=O)n2CCNC(C)=O)cc1` | 0.631 | rising, full curve, poor fit |
| 2 | `COc1ccc(-c2cnnn2-c2ccc(NC(=O)c3ccco3)cc2)cc1OC` | 7.943 | falling, partial curve |
| 3 | `CCCCC[C@H](O)C=C[C@H]1[C@H](O)CC(=O)[C@H]1CCCCCCC(=O)O` | 31.62 | rising, single point |
| 4 | `COc1cccc2c(=O)c(C(=O)NCc3cccs3)c[nH]c12` | 5.012 | rising, single point |
| 5 | `COc1cc(C(=O)NCCc2nc3ccccc3n2C)cc(OC)c1OC` | 0.003162 | falling, full curve |
| 6 | `C=CCN1C(=O)CS/C1=C(\C#N)S(=O)(=O)c1ccc(C)cc1` | 5.012 | rising, single point |
| 7 | `C/C(=C\C1CCCCC1)C(NC(=O)c1ccc(C(F)(F)F)cc1)c1ccc(-c2ccccc2)cc1` (centres unmarked) | 12.59 | falling, single point |
| 8 | `COc1ccccc1NC(=O)CN(c1ccccc1F)S(C)(=O)=O` | 7.943 | falling, partial curve, poor fit |
| 9 | `N#CCCSc1ncnc2c1oc1ccccc12` | 0.1259 | rising, partial curve |
| 10 | `CCn1ncc(Br)c1C(=O)Nc1ccc(F)cc1F` | 0.1585 | falling, partial curve |
| 11 | `COc1ccc2[nH]cc(CCN)c2c1` | 5.012 | rising, partial curve, poor fit |
| 12 | `O=C(O)CCc1nc(-c2ccccc2Cl)no1` | 0.07943 | rising, full curve, poor fit |
| 13 | `Cc1cc(C)nc(SCc2n[nH]c(=S)n2C)n1` | 31.62 | rising, single point |
| 14 | `Cc1ccc(S(=O)(=O)NCc2ccccc2)cc1` | 31.62 | falling, single point |
| 15 | `CC1CCN(c2nc3ccccc3nc2C(C#N)C(=O)OC2CCCCC2)CC1` (centres unmarked) | 1 | falling, single point |
| 16 | `NC(=S)Nc1ccccc1` | 31.62 | falling, single point |
| 17 | `Cn1nc(-c2ccc(Cl)cc2)c2cc(C(=O)NCCN3CCOCC3)sc21` | 10 | falling, partial curve |
| 18 | `O=C(OCc1cccs1)c1ccccc1NS(=O)(=O)c1ccc2c(c1)OCCO2` | 12.59 | falling, partial curve |
| 19 | `O=C(c1nc(-c2ccccc2)n(-c2ccccc2)n1)N1CCCCCC1` | 15.85 | falling, partial curve |
| 20 | `NC(=O)c1c(-c2cccs2)csc1N` | 12.59 | falling, single point |
| 21 | `COc1cc2[nH]c(=O)c(C(=O)NCCCN3CCCCC3)c(O)c2cc1OC` | 19.95 | falling, partial curve |
| 22 | `CCNc1ncc2nc(CCc3ccccc3)c(=O)n(C3CC3)c2n1` | 12.59 | rising, partial curve |
| 23 | `O=C(Nc1cnn(Cc2ccc(Cl)cc2Cl)c1)c1noc2c1CCCC2` | 7.943 | falling, partial curve |
| 24 | `C=CCn1c(SCC(=O)Nc2ccc(N(C)C)cc2)nnc1-c1cccc(C)c1` | 7.943 | rising, partial curve, poor fit |
| 25 | `CSc1nc(NC2CCCC2)c([N+](=O)[O-])c(NC2CCCC2)n1` | 7.943 | falling, partial curve |
| 26 | `c1ccc2c(c1)-c1cccc3c1c-2cc1ccccc13` | 12.59 | rising, full curve |
| 27 | `COc1cc(OC)cc(OCC(O)Cn2cnc(-c3ccccc3)c2)c1` (centres unmarked) | 31.62 | falling, single point |
| 28 | `COc1ccc(S(=O)(=O)NCCSc2ccc(C)cc2)cc1OC` | 31.62 | falling, single point |
| 29 | `COc1ccc(OC)c(NC(=O)c2cc(S(=O)(=O)NCc3ccco3)ccc2F)c1` | 3.162 | falling, single point |
| 30 | `Brc1ccc(-c2nc(-c3ccccc3)no2)o1` | 12.59 | falling, partial curve |
| 31 | `COC(C)(C)[C@]12CC(O)(c3ccccc3)ON1[C@H]1CCCCC1N2O` (some centres unmarked) | 3.981 | falling, partial curve |
| 32 | `CCOc1ccc(OCc2ccc(C(=O)Nc3ccc(Cl)cn3)o2)cc1` | 5.012 | rising, single point |
| 33 | `CCOC(=O)CC(=O)CSc1ccc2nnc(-c3ccccc3)n2n1` | 31.62 | rising, single point |
| 34 | `CCOc1ccc2nc(N3CCCN(C(=O)Nc4ccccc4C)CC3)c(C#N)cc2c1` | 19.95 | rising, single point |
| 35 | `COc1ccc(-n2c(=O)c(CCc3ccccc3)nc3cnc(N4CCNCC4)nc32)cc1` | 19.95 | rising, single point |
| 36 | `Nc1n[nH]c2c1C1(CCCCC1)Cc1ccccc1-2` | 0.007943 | falling, full curve |
| 37 | `OCCOCCNc1ncnc2nc[nH]c12` | 31.62 | falling, partial curve, poor fit |
| 38 | `N#Cc1nc(-c2cccs2)oc1N1CCN(Cc2ccccc2)CC1` | 10 | falling, partial curve |
| 39 | `N#C/C(=C\c1ccc(O)c(O)c1)C(=O)NCc1ccccc1` | 12.59 | falling, partial curve |
| 40 | `O=C1C=C(N2CCN(c3ccccn3)CC2)C(=O)c2c(O)ccc(O)c21` | 3.162 | rising, partial curve |
| 41 | `Cc1ccc2oc(-c3ccccc3)c(O)c(=O)c2c1` | 31.62 | falling, single point |
| 42 | `COc1ccc(C2CC(C(F)(F)F)n3nc(C(=O)Nc4ccc5c(c4)OCO5)cc3N2)cc1` (centres unmarked) | 7.943 | falling, partial curve |
| 43 | `COc1ccc(OC)c2sc(NC(=O)C(C)C)nc12` | 1.585 | rising, partial curve, poor fit |
| 44 | `N#C/C(=C\c1ccc(O)c(O)c1)C(=O)NCCCNC(=O)/C(C#N)=C/c1ccc(O)c(O)c1` | 10 | rising, single point |
| 45 | `N#Cc1ccc(C23CC4CC(CC(C4)C2)C3)[nH]c1=O` | 5.012 | falling, single point |
| 46 | `COc1cc(C[C@H]2C(=O)OC[C@@H]2Cc2ccc(OC)c(OC)c2)ccc1O` | 12.59 | falling, partial curve |
| 47 | `CCOc1ccccc1N(CC(=O)NC(C)(C)C)C(=O)c1ccc(CN2CCOCC2)o1` | 3.162 | falling, single point |
| 48 | `c1ccc([C@H]2CNCc3ccccc32)cc1` | 12.59 | falling, single point |
| 49 | `N#CC1=C2SCN(Cc3ccco3)CN2C(=O)CC1c1cccc2ccccc12` (centres unmarked) | 6.31 | rising, partial curve, poor fit |
| 50 | `COc1ccc(-c2nc(C#N)c(N3CCN(c4ccccc4)CC3)o2)cc1` | 5.012 | falling, partial curve |
| 51 | `CCCC(=O)N1CCN(c2ccc(NC(=O)c3cc4ccccc4o3)cc2Cl)CC1` | 3.981 | falling, full curve |
| 52 | `Cn1cccc1C(=O)N1CCC[C@@]2(CCN(Cc3nccs3)C2)C1` | 5.012 | rising, single point |
| 53 | `Cc1ccc(-n2nc(C)c3c(-c4cccs4)c(C#N)c(N)nc32)cc1` | 15.85 | rising, partial curve |
| 54 | `Cc1ccc(C)c(N(CC(=O)NCc2ccc3c(c2)OCO3)C(=O)CCC(=O)Nc2ccccn2)c1` | 12.59 | rising, partial curve, poor fit |
| 55 | `COc1cc2nc(SCC(=O)NCc3ccco3)n(Cc3ccc(Cl)cc3)c(=O)c2cc1OC` | 5.012 | rising, single point |

From PubChem BioAssay record AID912 (NCATS, 2007).